No constants are given. Whether binding was seen depends on the method and setting. Some entries that bind do so weakly or less than the wild type. Sequences can lack the tags named with a protein.

These results are taken from paper doi:10.1101/2025.01.09.632101.

The experiment concerns the target T1, porcine DPEP1 (residues 17-385) from Drosophila S2 cells, tag removed, deglycosylated (crystallization) (porcine (Sus scrofa)), P22412.
T1 chain: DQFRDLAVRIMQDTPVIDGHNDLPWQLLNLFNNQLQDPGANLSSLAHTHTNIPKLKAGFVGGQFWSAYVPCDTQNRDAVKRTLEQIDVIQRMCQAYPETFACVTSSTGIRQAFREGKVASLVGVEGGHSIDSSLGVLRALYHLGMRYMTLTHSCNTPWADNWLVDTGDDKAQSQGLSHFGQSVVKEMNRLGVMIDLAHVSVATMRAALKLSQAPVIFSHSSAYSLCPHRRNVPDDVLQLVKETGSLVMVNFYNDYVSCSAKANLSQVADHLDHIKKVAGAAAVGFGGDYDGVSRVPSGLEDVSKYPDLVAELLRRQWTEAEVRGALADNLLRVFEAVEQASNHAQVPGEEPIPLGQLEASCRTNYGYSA
The experiment is described as follows: crystal structure. As to conditions: remark: other sources report otherwise.

B1: porcine DPEP1 (residues 17-385) from Drosophila S2 cells, tag removed, deglycosylated (crystallization), P22412 17-385 (receptor)
chain: T1 chain
Consider B1, for which the binding result is given as “binds”.
